± gives the standard deviation of the averaged measurements. Values are raw readings; no control value is given beside them.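 The top concentration was set near the MIC for antimicrobials, at 500 µM for most other compounds, and up to 1 mM for known inducer-like compounds. Deletion strains started from a tenfold smaller inoculum, and wells growing below 10% of the overall median were treated as non-growing.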
Test system: Escherichia coli BW25113
Assay: growth (OD600 area under curve, 8 h) (OD600 x h); higher = more growth
Protocol: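 E. coli BW25113 reporter strains (wild type, ΔmarA, ΔsoxS, Δrob, each carrying one of 8 lux reporter plasmids) were grown in 40 µl LB in 384-well plates at 37°C, 800 rpm, with each compound at 4 two-fold concentrations, in biological duplicates. Growth is the baseline-corrected OD600 area under the curve over 8 h (0-8 h WT, 1-9 h deletion strains).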

O=c1c(O)c(-c2ccc(O)c(O)c2)oc2cc(O)cc(O)c12 [Quercetin]
growth (18.9 µg/ml, genetic background: wild type, reporter plasmid: EVC): 3.42 ± 0.3
growth (18.9 µg/ml, genetic background: wild type, reporter plasmid: acrABp): 3.11 ± 0.51
growth (18.9 µg/ml, genetic background: wild type, reporter plasmid: marRABp): 3.21 ± 0.16
growth (18.9 µg/ml, genetic background: wild type, reporter plasmid: micFp): 3.37 ± 0.18
growth (18.9 µg/ml, genetic background: wild type, reporter plasmid: ompFp): 2.94 ± 0.25
growth (18.9 µg/ml, genetic background: wild type, reporter plasmid: robp): 2.92 ± 0.4
growth (18.9 µg/ml, genetic background: wild type, reporter plasmid: soxSp): 3.42 ± 0.19
growth (18.9 µg/ml, genetic background: wild type, reporter plasmid: tolCp): 3.36 ± 0.098
growth (18.9 µg/ml, genetic background: ΔmarA, reporter plasmid: EVC): 3.65 ± 0.71
growth (18.9 µg/ml, genetic background: ΔmarA, reporter plasmid: acrABp): 3.55 ± 0.6
growth (18.9 µg/ml, genetic background: ΔmarA, reporter plasmid: marRABp): 3.57 ± 0.064
growth (18.9 µg/ml, genetic background: ΔmarA, reporter plasmid: micFp): 3.53 ± 0.74
growth (18.9 µg/ml, genetic background: ΔmarA, reporter plasmid: ompFp): 3.07 ± 0.41
growth (18.9 µg/ml, genetic background: ΔmarA, reporter plasmid: robp): 3.83 ± 0.71
growth (18.9 µg/ml, genetic background: ΔmarA, reporter plasmid: soxSp): 3.27 ± 0.74
growth (18.9 µg/ml, genetic background: ΔmarA, reporter plasmid: tolCp): 3.22 ± 0.33
growth (18.9 µg/ml, genetic background: Δrob, reporter plasmid: EVC): 3.44 ± 0.25
growth (18.9 µg/ml, genetic background: Δrob, reporter plasmid: acrABp): 2.73 ± 0.21
growth (18.9 µg/ml, genetic background: Δrob, reporter plasmid: marRABp): 3.41 ± 0.58
growth (18.9 µg/ml, genetic background: Δrob, reporter plasmid: micFp): 3.27 ± 0.52
growth (18.9 µg/ml, genetic background: Δrob, reporter plasmid: ompFp): 2.62 ± 0.45
growth (18.9 µg/ml, genetic background: Δrob, reporter plasmid: robp): 2.92 ± 0.21
growth (18.9 µg/ml, genetic background: Δrob, reporter plasmid: soxSp): 3.26 ± 0.34
growth (18.9 µg/ml, genetic background: Δrob, reporter plasmid: tolCp): 3.42 ± 0.078
growth (18.9 µg/ml, genetic background: ΔsoxS, reporter plasmid: EVC): 3.57 ± 0.1
growth (18.9 µg/ml, genetic background: ΔsoxS, reporter plasmid: acrABp): 3.33 ± 0.2
growth (18.9 µg/ml, genetic background: ΔsoxS, reporter plasmid: marRABp): 2.812 ± 0.022
growth (18.9 µg/ml, genetic background: ΔsoxS, reporter plasmid: micFp): 3.15 ± 0.21
growth (18.9 µg/ml, genetic background: ΔsoxS, reporter plasmid: ompFp): 3.32 ± 0.15
growth (18.9 µg/ml, genetic background: ΔsoxS, reporter plasmid: robp): 3.19 ± 0.16
growth (18.9 µg/ml, genetic background: ΔsoxS, reporter plasmid: soxSp): 3.31 ± 0.32
growth (18.9 µg/ml, genetic background: ΔsoxS, reporter plasmid: tolCp): 3.42 ± 0.25
growth (37.8 µg/ml, genetic background: wild type, reporter plasmid: EVC): 3.36 ± 0.24
growth (37.8 µg/ml, genetic background: wild type, reporter plasmid: acrABp): 2.95 ± 0.65
growth (37.8 µg/ml, genetic background: wild type, reporter plasmid: marRABp): 2.91 ± 0.67
growth (37.8 µg/ml, genetic background: wild type, reporter plasmid: micFp): 3.231 ± 0.016
growth (37.8 µg/ml, genetic background: wild type, reporter plasmid: ompFp): 1.86 ± 1.6
growth (37.8 µg/ml, genetic background: wild type, reporter plasmid: robp): 3.21 ± 0.2
growth (37.8 µg/ml, genetic background: wild type, reporter plasmid: soxSp): 3.21 ± 0.18
growth (37.8 µg/ml, genetic background: wild type, reporter plasmid: tolCp): 3.26 ± 0.15
growth (37.8 µg/ml, genetic background: ΔmarA, reporter plasmid: EVC): 3.8 ± 0.7
growth (37.8 µg/ml, genetic background: ΔmarA, reporter plasmid: acrABp): 3.59 ± 0.12
growth (37.8 µg/ml, genetic background: ΔmarA, reporter plasmid: marRABp): 3.41 ± 0.31
growth (37.8 µg/ml, genetic background: ΔmarA, reporter plasmid: micFp): 3.47 ± 0.13
growth (37.8 µg/ml, genetic background: ΔmarA, reporter plasmid: ompFp): 2.85 ± 1
growth (37.8 µg/ml, genetic background: ΔmarA, reporter plasmid: robp): 3.65 ± 0.47
growth (37.8 µg/ml, genetic background: ΔmarA, reporter plasmid: soxSp): 3.23 ± 0.41
growth (37.8 µg/ml, genetic background: ΔmarA, reporter plasmid: tolCp): 3.12 ± 0.17
growth (37.8 µg/ml, genetic background: Δrob, reporter plasmid: EVC): 3.49 ± 0.41
growth (37.8 µg/ml, genetic background: Δrob, reporter plasmid: acrABp): 2.54 ± 0.26
growth (37.8 µg/ml, genetic background: Δrob, reporter plasmid: marRABp): 2.95 ± 0.55
growth (37.8 µg/ml, genetic background: Δrob, reporter plasmid: micFp): 3.23 ± 0.59
growth (37.8 µg/ml, genetic background: Δrob, reporter plasmid: ompFp): 2.15 ± 0.047
growth (37.8 µg/ml, genetic background: Δrob, reporter plasmid: robp): 2.56 ± 0.21
growth (37.8 µg/ml, genetic background: Δrob, reporter plasmid: soxSp): 3.23 ± 0.16
growth (37.8 µg/ml, genetic background: Δrob, reporter plasmid: tolCp): 3.43 ± 0.035
growth (37.8 µg/ml, genetic background: ΔsoxS, reporter plasmid: EVC): 3.71 ± 0.1
growth (37.8 µg/ml, genetic background: ΔsoxS, reporter plasmid: acrABp): 3.12 ± 0.37
growth (37.8 µg/ml, genetic background: ΔsoxS, reporter plasmid: marRABp): 2.8 ± 0.34
growth (37.8 µg/ml, genetic background: ΔsoxS, reporter plasmid: micFp): 3.25 ± 0.27
growth (37.8 µg/ml, genetic background: ΔsoxS, reporter plasmid: ompFp): 3.2 ± 0.32
growth (37.8 µg/ml, genetic background: ΔsoxS, reporter plasmid: robp): 2.6 ± 0.099
growth (37.8 µg/ml, genetic background: ΔsoxS, reporter plasmid: soxSp): 2.89 ± 0.61
growth (37.8 µg/ml, genetic background: ΔsoxS, reporter plasmid: tolCp): 3.477 ± 0.019
growth (75.6 µg/ml, genetic background: wild type, reporter plasmid: EVC): 2.94 ± 0.12
growth (75.6 µg/ml, genetic background: wild type, reporter plasmid: acrABp): 2.52 ± 0.47
growth (75.6 µg/ml, genetic background: wild type, reporter plasmid: marRABp): 2.72 ± 0.59
growth (75.6 µg/ml, genetic background: wild type, reporter plasmid: micFp): 3.13 ± 0.18
growth (75.6 µg/ml, genetic background: wild type, reporter plasmid: ompFp): 2.62 ± 0.74
growth (75.6 µg/ml, genetic background: wild type, reporter plasmid: robp): 3.17 ± 0.7
growth (75.6 µg/ml, genetic background: wild type, reporter plasmid: soxSp): 3.1 ± 0.12
growth (75.6 µg/ml, genetic background: wild type, reporter plasmid: tolCp): 3.026 ± 0.029
growth (75.6 µg/ml, genetic background: ΔmarA, reporter plasmid: EVC): 3.29 ± 0.9
growth (75.6 µg/ml, genetic background: ΔmarA, reporter plasmid: acrABp): 3.74 ± 0.78
growth (75.6 µg/ml, genetic background: ΔmarA, reporter plasmid: marRABp): 2.9 ± 0.092
growth (75.6 µg/ml, genetic background: ΔmarA, reporter plasmid: micFp): 3.08 ± 0.48
growth (75.6 µg/ml, genetic background: ΔmarA, reporter plasmid: ompFp): 2.83 ± 0.52
growth (75.6 µg/ml, genetic background: ΔmarA, reporter plasmid: robp): 3.55 ± 0.52
growth (75.6 µg/ml, genetic background: ΔmarA, reporter plasmid: soxSp): 2.81 ± 0.33
growth (75.6 µg/ml, genetic background: ΔmarA, reporter plasmid: tolCp): 2.79 ± 0.18
growth (75.6 µg/ml, genetic background: Δrob, reporter plasmid: EVC): 3.26 ± 0.47
growth (75.6 µg/ml, genetic background: Δrob, reporter plasmid: acrABp): 2.12 ± 0.66
growth (75.6 µg/ml, genetic background: Δrob, reporter plasmid: marRABp): 3.36 ± 0.26
growth (75.6 µg/ml, genetic background: Δrob, reporter plasmid: micFp): 3.3 ± 0.14
growth (75.6 µg/ml, genetic background: Δrob, reporter plasmid: ompFp): 2.17 ± 0.18
growth (75.6 µg/ml, genetic background: Δrob, reporter plasmid: robp): 2.93 ± 0.66
growth (75.6 µg/ml, genetic background: Δrob, reporter plasmid: soxSp): 3.06 ± 0.13
growth (75.6 µg/ml, genetic background: Δrob, reporter plasmid: tolCp): 3.27 ± 0.13
growth (75.6 µg/ml, genetic background: ΔsoxS, reporter plasmid: EVC): 3.62 ± 0.11
growth (75.6 µg/ml, genetic background: ΔsoxS, reporter plasmid: acrABp): 3.51 ± 0.14
growth (75.6 µg/ml, genetic background: ΔsoxS, reporter plasmid: marRABp): 2.93 ± 0.37
growth (75.6 µg/ml, genetic background: ΔsoxS, reporter plasmid: micFp): 3.14 ± 0.27
growth (75.6 µg/ml, genetic background: ΔsoxS, reporter plasmid: ompFp): 3.2 ± 0.11
growth (75.6 µg/ml, genetic background: ΔsoxS, reporter plasmid: robp): 3.11 ± 0.27
growth (75.6 µg/ml, genetic background: ΔsoxS, reporter plasmid: soxSp): 2.8 ± 0.64
growth (75.6 µg/ml, genetic background: ΔsoxS, reporter plasmid: tolCp): 3.528 ± 0.027
growth (151.1 µg/ml, genetic background: wild type, reporter plasmid: EVC): 2.73 ± 0.23
growth (151.1 µg/ml, genetic background: wild type, reporter plasmid: acrABp): 2.67 ± 0.13
growth (151.1 µg/ml, genetic background: wild type, reporter plasmid: marRABp): 2.34 ± 0.28
growth (151.1 µg/ml, genetic background: wild type, reporter plasmid: micFp): 2.79 ± 0.17
growth (151.1 µg/ml, genetic background: wild type, reporter plasmid: ompFp): 2.42 ± 0.61
growth (151.1 µg/ml, genetic background: wild type, reporter plasmid: robp): 2.53 ± 0.48
growth (151.1 µg/ml, genetic background: wild type, reporter plasmid: soxSp): 2.58 ± 0.16
growth (151.1 µg/ml, genetic background: wild type, reporter plasmid: tolCp): 2.596 ± 0.023
growth (151.1 µg/ml, genetic background: ΔmarA, reporter plasmid: EVC): 3.06 ± 0.83
growth (151.1 µg/ml, genetic background: ΔmarA, reporter plasmid: acrABp): 2.8 ± 0.16
growth (151.1 µg/ml, genetic background: ΔmarA, reporter plasmid: marRABp): 2.65 ± 0.39
growth (151.1 µg/ml, genetic background: ΔmarA, reporter plasmid: micFp): 2.59 ± 0.17
growth (151.1 µg/ml, genetic background: ΔmarA, reporter plasmid: ompFp): 2.78 ± 1.3
growth (151.1 µg/ml, genetic background: ΔmarA, reporter plasmid: robp): 3.33 ± 0.25
growth (151.1 µg/ml, genetic background: ΔmarA, reporter plasmid: soxSp): 2.438 ± 0.022
growth (151.1 µg/ml, genetic background: ΔmarA, reporter plasmid: tolCp): 2.55 ± 0.052
growth (151.1 µg/ml, genetic background: Δrob, reporter plasmid: EVC): 2.9 ± 0.68
growth (151.1 µg/ml, genetic background: Δrob, reporter plasmid: acrABp): 2.43 ± 0.047
growth (151.1 µg/ml, genetic background: Δrob, reporter plasmid: marRABp): 2.26 ± 0.25
growth (151.1 µg/ml, genetic background: Δrob, reporter plasmid: micFp): 3.21 ± 0.23
growth (151.1 µg/ml, genetic background: Δrob, reporter plasmid: ompFp): 1.77 ± 0.28
growth (151.1 µg/ml, genetic background: Δrob, reporter plasmid: robp): 2.26 ± 0.093
growth (151.1 µg/ml, genetic background: Δrob, reporter plasmid: soxSp): 2.84 ± 0.052
growth (151.1 µg/ml, genetic background: Δrob, reporter plasmid: tolCp): 2.84 ± 0.06
growth (151.1 µg/ml, genetic background: ΔsoxS, reporter plasmid: EVC): 3.092 ± 0.015
growth (151.1 µg/ml, genetic background: ΔsoxS, reporter plasmid: acrABp): 2.89 ± 0.26
growth (151.1 µg/ml, genetic background: ΔsoxS, reporter plasmid: marRABp): 2.82 ± 0.58
growth (151.1 µg/ml, genetic background: ΔsoxS, reporter plasmid: micFp): 2.76 ± 0.37
growth (151.1 µg/ml, genetic background: ΔsoxS, reporter plasmid: ompFp): 2.64 ± 0.21
growth (151.1 µg/ml, genetic background: ΔsoxS, reporter plasmid: robp): 2.52 ± 0.47
growth (151.1 µg/ml, genetic background: ΔsoxS, reporter plasmid: soxSp): 2.58 ± 0.46
growth (151.1 µg/ml, genetic background: ΔsoxS, reporter plasmid: tolCp): 3.17 ± 0.27
